Consider 1 molecule from paper PMC5653820.

Results are given in words; binding and its absence hold for the method and conditions named. Binding seen in cells or lysates may run through a third protein. A yes stands for co-enrichment or nearness to the bait. Other partners may have been found.

The target of this assay is cyclin-dependent kinase 5 (melanocytes of the K10 experiments) (not stated (alpaca melanocytes in the results, mouse melanocytes in the methods)) (UniProt P49615). The assay can be described thus: affinity purification with mass spectrometry; total proteins from melanocytes precleared with protein-A/G beads, anti-Cdk5 antibody overnight, protein-A/G beads 2 h; LC-ESI-Q-TOF mass spectrometry, IPI database.

B1: Keratin 10 (protein, UniProt P02535 1-570)
chain: MSVLYSSSSKQFSSSRSGGGGGGGSVRVSSTRGSLGGGYSSGGFSGGSFSRGSSGGGCFGGSSGGYGGFGGGGSFGGGYGGSSFGGGYGGSSFGGGYGGSSFGGAGFGGGGSFGGGSFGGGSYGGGFGGGGFGGDGGSLLSGNGRVTMQNLNDRLASYMDKVRALEESNYELEGKIKEWYEKHGNSSQREPRDYSKYYKTIEDLKGQILTLTTDNANVLLQIDNARLAADDFRLKYENEVTLRQSVEADINGLRRVLDELTLSKSDLEMQIESLNEELAYLKKNHEEEMRDLQNVSTGDVNVEMNAAPGVDLTQLLNNMRNQYEQLAEKNRKDAEEWFNQKSKELTTEIDSNIEQMSSHKSEITELRRTVQGLEIELQSQLALKQSLEASLAETEGRYCVQLSQIQSQISALEEQLQQIRAETECQNAEYQQLLDIKTRLENEIQTYRSLLEGEGSSSGGGGGRRGGSGGGSYGGSSGGGSYGGSSGGGGSYGGSSGGGGSYGGGSSGGGSHGGSSGGGYGGGSSSGGAGGHGGSSGGGYGGGSSSGGQGGSGGFKSSGGGDQSSKGPRY
On to B1, for which the binding result is recorded as “binds”.
